According to PubChem BioAssay AID248 (DTP/NCI, 2004):
The list does not hold the whole screen: it is rich in T/C values a quarter to a half above the control, in often repeated tests (any T/C) and in doses without a T/C. Further doses and runs are listed elsewhere. T/C: endpoint of the treated group in % of that of the vehicle group. Some doses have a count of surviving animals in place of a T/C: the source files T/C as zero there, which appears to mark a toxic dose or a test without result, not a measured value. Some doses without a T/C left all or most animals alive at the check, yet need not have been tolerated: the source hardly ever lists a survival T/C far under the control, and the zero likely stands for such cases as well. Counts of survivors are from the toxicity check (mostly the fifth day) where no day follows; animals may have died later. Schedule codes are those of the source, read here as Q, the interval in days (D) or hours (H), X, the number of doses. For survival time, the PubChem record calls one and a half times the control and up active, and a quarter to a half above the control has no call in these data; cut-offs in other NCI protocols can differ. Some entries hold several experiments; the values are given in rising order. Additions like (4×) stand for listed records that agree. Some T/C values carry the count of animals alive at the toxicity check (mostly the fifth day); without a count, all were alive then.

System: L1210 leukemia ip in BDF1 mice, survival T/C
Test: NCI In Vivo Anticancer Drug Screen. Data for tumor model L1210 Leukemia (intraperitoneal) in B6D2F1 (BDF1) mice
Conditions: T/C endpoint: mean survival time, higher T/C = longer survival
[1] = dose: 50.0 mg/kg/injection, schedule: Q04DX002 (ip), vehicle: saline with Tween-80
[2] = dose: 200.0 mg/kg/injection, schedule: Q04DX002 (ip), vehicle: saline with Tween-80

CC(=O)N(c1ccncc1)c1ccc(NC(=O)c2ccc(N3C(=O)c4ccccc4C3=O)cc2[N+](=O)[O-])cc1
T/C [1]: 98 (2×) and 109 % of control | survivor count [1]: 1 of 3 | T/C (dose: 100.0 mg/kg/injection, schedule: Q04DX002 (ip), vehicle: saline with Tween-80): 90, 93, 96, 98, 106, 108 % of control | T/C [2]: 92, 93, 95, 100 % of control | survivor count [2]: 3 of 3

COc1cc(C(=O)NC(CCC(=O)O)C(=O)O)ccc1N(C)Cc1cnc2nc(N)nc(N)c2n1 (stereo not given)
T/C (dose: 12.5 mg/kg/injection, schedule: Q01DX009 (ip), vehicle: sodium bicarbonate): 145 % of control | T/C (dose: 50.0 mg/kg/injection, schedule: Q01DX009 (ip), vehicle: sodium bicarbonate): 140 % of control

CN(C)CC/C=C1\c2ccccc2Sc2ccc(Cl)cc21
survivor count (dose: 2.99 mg/kg/injection, schedule: Q03HX024 (ip), vehicle: Klucel (hydroxypropylcellulose) (HPC)): 2 of 6 | survivor count (dose: 5.98 mg/kg/injection, schedule: Q03HX024 (ip), vehicle: Klucel (hydroxypropylcellulose) (HPC)): 1 of 6 | T/C (dose: 11.71 mg/kg/injection, schedule: Q01DX001 (ip), vehicle: Klucel (hydroxypropylcellulose) (HPC)): 130 % of control [5 of 6 alive] | survivor count (dose: 11.96 mg/kg/injection, schedule: Q03HX024 (ip), vehicle: Klucel (hydroxypropylcellulose) (HPC)): 0 of 6 | T/C (dose: 15.62 mg/kg/injection, schedule: Q04DX003 (ip), vehicle: Klucel (hydroxypropylcellulose) (HPC)): 125 % of control [3 of 4 alive] | survivor count (dose: 23.92 mg/kg/injection, schedule: Q03HX024 (ip), vehicle: Klucel (hydroxypropylcellulose) (HPC)): 0 of 6 | survivor count (dose: 45.0 mg/kg/injection, schedule: Q01DX001 (ip), vehicle: saline): 2 of 6 | T/C (dose: 46.87 mg/kg/injection, schedule: Q01DX001 (ip), vehicle: Klucel (hydroxypropylcellulose) (HPC)): 126 % of control [5 of 6 alive] | T/C (dose: 60.0 mg/kg/injection, schedule: Q01DX001 (ip), vehicle: Klucel (hydroxypropylcellulose) (HPC)): 125 % of control [5 of 6 alive] | survivor count (dose: 62.5 mg/kg/injection, schedule: Q01DX009 (ip), vehicle: Klucel (hydroxypropylcellulose) (HPC)): 0 of 6 | survivor count (dose: 62.5 mg/kg/injection, schedule: Q04DX003 (ip), vehicle: Klucel (hydroxypropylcellulose) (HPC)): 2 of 4 | survivor count (dose: 90.0 mg/kg/injection, schedule: Q01DX001 (ip), vehicle: saline): 0 of 6 | survivor count (dose: 93.75 mg/kg/injection, schedule: Q01DX001 (ip), vehicle: Klucel (hydroxypropylcellulose) (HPC)): 3 of 6 | survivor count (dose: 125.0 mg/kg/injection, schedule: Q04DX003 (ip), vehicle: Klucel (hydroxypropylcellulose) (HPC)): 0 of 4 | survivor count (dose: 187.5 mg/kg/injection, schedule: Q01DX001 (ip), vehicle: Klucel (hydroxypropylcellulose) (HPC)): 0 of 6 | survivor count (dose: 250.0 mg/kg/injection, schedule: Q04DX003 (ip), vehicle: Klucel (hydroxypropylcellulose) (HPC)): 0 of 4

Cc1c2c(nn1-c1ccccn1)C(=O)C=C(Nc1ccccc1)C2=O
survivor count (dose: 100.0 mg/kg/injection, schedule: Q04DX002 (ip), vehicle: Klucel (hydroxypropylcellulose) (HPC)): 3 of 3 | survivor count (dose: 200.0 mg/kg/injection, schedule: Q04DX002 (ip), vehicle: Klucel (hydroxypropylcellulose) (HPC)): 3 of 3
